Four molecules from patent US20200308219A1 can be followed below.

Amino acid sequences for entries named in this document (tags omitted). Residues count along the entry.
UniProt P07996, residues 19-1170: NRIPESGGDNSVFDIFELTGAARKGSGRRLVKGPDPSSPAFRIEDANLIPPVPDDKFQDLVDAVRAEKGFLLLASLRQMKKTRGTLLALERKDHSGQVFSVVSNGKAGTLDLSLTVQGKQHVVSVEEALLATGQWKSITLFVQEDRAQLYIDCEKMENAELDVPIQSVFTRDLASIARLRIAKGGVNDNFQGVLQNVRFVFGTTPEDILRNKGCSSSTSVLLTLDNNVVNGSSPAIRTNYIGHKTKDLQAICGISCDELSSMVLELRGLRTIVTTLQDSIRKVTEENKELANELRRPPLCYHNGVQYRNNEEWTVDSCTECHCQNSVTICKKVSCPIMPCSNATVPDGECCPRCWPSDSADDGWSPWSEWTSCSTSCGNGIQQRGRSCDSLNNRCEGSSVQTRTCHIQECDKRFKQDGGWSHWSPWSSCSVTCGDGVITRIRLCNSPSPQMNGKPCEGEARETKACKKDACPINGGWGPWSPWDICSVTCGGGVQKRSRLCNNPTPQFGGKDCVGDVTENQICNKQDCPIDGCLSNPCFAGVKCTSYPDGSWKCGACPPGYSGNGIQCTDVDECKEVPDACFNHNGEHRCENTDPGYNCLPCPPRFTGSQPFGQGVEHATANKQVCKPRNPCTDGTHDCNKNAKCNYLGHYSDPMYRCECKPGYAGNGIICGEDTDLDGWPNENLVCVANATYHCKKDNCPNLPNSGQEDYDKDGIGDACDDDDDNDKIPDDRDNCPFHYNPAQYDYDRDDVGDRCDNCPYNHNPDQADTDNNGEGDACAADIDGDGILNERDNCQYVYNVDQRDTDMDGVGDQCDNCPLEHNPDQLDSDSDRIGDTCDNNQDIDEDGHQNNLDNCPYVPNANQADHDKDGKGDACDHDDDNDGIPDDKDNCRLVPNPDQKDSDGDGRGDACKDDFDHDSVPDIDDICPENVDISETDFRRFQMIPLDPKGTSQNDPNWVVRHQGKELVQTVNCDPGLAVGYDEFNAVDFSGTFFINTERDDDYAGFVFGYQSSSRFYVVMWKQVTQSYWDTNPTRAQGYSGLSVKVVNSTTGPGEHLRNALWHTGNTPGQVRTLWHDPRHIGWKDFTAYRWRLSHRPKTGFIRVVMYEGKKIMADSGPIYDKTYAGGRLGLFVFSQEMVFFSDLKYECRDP
UniProt P26022, residues 18-381: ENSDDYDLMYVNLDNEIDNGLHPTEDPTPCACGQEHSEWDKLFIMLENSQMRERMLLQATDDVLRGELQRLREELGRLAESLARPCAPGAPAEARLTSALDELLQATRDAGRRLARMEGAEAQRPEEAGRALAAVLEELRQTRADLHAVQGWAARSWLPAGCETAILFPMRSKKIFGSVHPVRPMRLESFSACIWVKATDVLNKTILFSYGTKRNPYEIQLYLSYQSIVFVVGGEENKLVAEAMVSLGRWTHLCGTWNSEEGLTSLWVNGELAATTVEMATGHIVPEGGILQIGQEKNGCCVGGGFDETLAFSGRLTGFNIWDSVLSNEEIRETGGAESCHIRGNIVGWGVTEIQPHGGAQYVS

No constants are given. Whether binding was seen depends on the method and setting. For part of these data: In cells and extracts the contact can be indirect. Some results given as binding are weak or reduced against the parent protein; the word gives no strength. Sequences can lack the tags named with a protein.

Assay [1] concerns the target T1, HC-HA complex purified from human amniotic membrane (PBS or GnHCl extract, by successive ultracentrifugation) (human) (UniProt P19827).
T1 sequence (ester-linked to hyaluronan (HA), looked up): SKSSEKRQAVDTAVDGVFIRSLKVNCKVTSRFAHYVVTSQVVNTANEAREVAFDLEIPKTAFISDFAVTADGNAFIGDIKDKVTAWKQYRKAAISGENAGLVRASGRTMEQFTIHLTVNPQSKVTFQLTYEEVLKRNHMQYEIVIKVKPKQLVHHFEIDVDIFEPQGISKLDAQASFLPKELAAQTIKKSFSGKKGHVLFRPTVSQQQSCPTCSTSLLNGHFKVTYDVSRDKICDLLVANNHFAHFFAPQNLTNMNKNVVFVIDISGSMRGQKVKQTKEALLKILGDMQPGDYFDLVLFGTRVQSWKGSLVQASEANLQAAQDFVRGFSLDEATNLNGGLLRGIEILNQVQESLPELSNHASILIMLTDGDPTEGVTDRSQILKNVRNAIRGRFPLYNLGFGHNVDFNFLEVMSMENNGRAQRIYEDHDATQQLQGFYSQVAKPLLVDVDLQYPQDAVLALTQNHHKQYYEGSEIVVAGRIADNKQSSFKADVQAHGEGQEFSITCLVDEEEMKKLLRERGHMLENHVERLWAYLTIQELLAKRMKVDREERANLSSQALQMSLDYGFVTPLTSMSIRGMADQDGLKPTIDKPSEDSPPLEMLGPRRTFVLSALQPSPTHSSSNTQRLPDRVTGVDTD
Kind of assay: Western blot anti-TSP-1 of AM GnHCl extract with or without HAase; binding dissociated by GnHCl and CsCl. On the technique in general: Immunoblotting shows a protein as a band on a membrane.

For assay [2], the target named is T1, HC-HA complex purified from human amniotic membrane (PBS or GnHCl extract, by successive ultracentrifugation) (human). Put plainly: Western blot anti-PTX3 of AM extract and HC-HA with or without NaOH.
The target of assay [3] is T2, HC-HA complex purified from human umbilical cord (PBS or GnHCl extract, 4th ultracentrifugation) (human) (UniProt P19827).
T2 sequence (ester-linked to hyaluronan (HA), looked up): T1 sequence (ester-linked to hyaluronan (HA), looked up)
Kind of assay: Western blot anti-PTX3 of 4th UC HC-HA, sample buffer with or without 2-ME.

Assay [4] concerns the target T1, HC-HA complex purified from human amniotic membrane (PBS or GnHCl extract, by successive ultracentrifugation) (human). Put plainly: co-purification through 1-4 CsCl/GnHCl ultracentrifugations; Western blot anti-PTX3 with or without HAase.
The target of assay [5] is T2, HC-HA complex purified from human umbilical cord (PBS or GnHCl extract, 4th ultracentrifugation) (human). Kind of assay: Western blot anti-PTX3 of UC GnHCl HC-HA after HAase, keratinase, chondroitinase.
The target of assay [6] is T1, HC-HA complex purified from human amniotic membrane (PBS or GnHCl extract, by successive ultracentrifugation) (human). Put plainly: agarose gel of PBS and GnHCl HC-HA compared with PTX3 Western blot.
Assay [7] shares this target. Kind of assay: co-purification; Western blot anti-PTX3 of AM 2nd and 4th HC-HA with or without HAase.
For assay [8] the target is unchanged. Kind of assay: co-purification; Western blot anti-osteoadherin.
Assay [9] has as its target T2, HC-HA complex purified from human umbilical cord (PBS or GnHCl extract, 4th ultracentrifugation) (human). Put plainly: Western blot anti-bikunin of UC GnHCl HC-HA with chondroitinase.

With “thrombospondin-1 (TSP-1) of human amniotic membrane (GnHCl extract) (from UniProt P07996 19-1170)”, the binding entry in [1] is recorded as “binds”.
“native PTX3 of human amniotic membrane and umbilical cord (as found in extracts and purified HC-HA complexes) (from UniProt P26022 18-381)”: the binding entry in [2], in assay [3], in assay [4], in [5], in assay [6] and in assay [7] was “binds” each time.

B1: non-keratan sulfate osteoadherin of human amniotic membrane (in AM GnHCl HC-HA) (protein, UniProt Q99983 21-421, looked up)
chain: QYETYQWDEDYDQEPDDDYQTGFPFRQNVDYGVPFHQYTLGCVSECFCPTNFPSSMYCDNRKLKTIPNIPMHIQQLYLQFNEIEAVTANSFINATHLKEINLSHNKIKSQKIDYGVFAKLPNLLQLHLEHNNLEEFPFPLPKSLERLLLGYNEISKLQTNAMDGLVNLTMLDLCYNYLHDSLLKDKIFAKMEKLMQLNLCSNRLESMPPGLPSSLMYLSLENNSISSIPEKYFDKLPKLHTLRMSHNKLQDIPYNIFNLPNIVELSVGHNKLKQAFYIPRNLEHLYLQNNEIEKMNLTVMCPSIDPLHYHHLTYIRVDQNKLKEPISSYIFFCFPHIHTIYYGEQRSTNGQTIQLKTQVFRRFPDDDDESEDHDDPDNAHESPEQEGAEGHFDLHYYENQE
Regarding B1, the binding result in assay [8] is listed as “binds”.

B2: bikunin of human umbilical cord (in UC GnHCl HC-HA) (protein, UniProt P02760 206-352, looked up)
chain: AVLPQEEEGSGGGQLVTEVTKKEDSCQLGYSAGPCMGMTSRYFYNGTSMACETFQYGGCMGNGNNFVTEKECLQTCRTVAACNLPIVRGPCRAFIQLWAFDAVKGKCVLFPYGGCQGNGNKFYSEKECREYCGVPGDGDEELLRFSN
modifications: carries chondroitin sulfate (35 kDa; 25 kDa core after chondroitinase)
As for B2, the binding entry in assay [9] was “binds”.
